These are yes or no findings as the source states them, for the method shown. Some results given as binding are weak or reduced against the parent protein; the word gives no strength.

By UniProt entry, the sequences of proteins in these tests, tags left out. Where a name states a change or a piece, a line headed by the entry shows the natural chain unless it says otherwise. Residues count along the entry.
UniProt Q9WU72: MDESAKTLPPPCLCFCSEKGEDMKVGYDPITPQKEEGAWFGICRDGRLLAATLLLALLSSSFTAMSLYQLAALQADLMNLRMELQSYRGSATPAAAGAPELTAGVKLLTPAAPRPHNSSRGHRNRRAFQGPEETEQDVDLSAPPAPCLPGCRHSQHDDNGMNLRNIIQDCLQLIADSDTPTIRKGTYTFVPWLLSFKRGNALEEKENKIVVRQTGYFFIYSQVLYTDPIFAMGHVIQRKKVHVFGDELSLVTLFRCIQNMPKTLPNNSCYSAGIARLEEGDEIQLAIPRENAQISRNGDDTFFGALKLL
mouse B Lymphocyte Stimulator: residues 127-309 of Q9WU72

The target of test [1] is mouse B Lymphocyte Stimulator (mouse) (UniProt Q9WU72). Put plainly: phage ELISA. On the technique in general: In an ELISA, binding on a coated surface is turned into a signal by an enzyme label.
In test [2] the target is membrane-bound B Lymphocyte Stimulator on P388 plasma membranes (mouse) (mouse) (UniProt Q9WU72). Briefly: phage ELISA.

B1: I003F12 (scFv)
scFv: QVQLLQSAAELKKPGQSLKISCKGSGFTFTTYWIGWVRQLPGKGLEWMGIIYPGDSHTTYSPSFEGHVNISVDKSINTAYLQWSSLKASDTAMYYCARHDDDVLTGYYFESWGQGTMVTVSSGGGGSGGGGSGGGGSQSVLTQPASVSGSPGQSITISCTGTSSDVGGYNYVSWYQQHPGKAPKLMIYEGSKRPSGVSNRFSGSKSGNTASLTISGLQAEDEADYYCSSYTTRSTRVFGGGTKLTVLG
Regarding B1, in test [1], the binding result is reported as “binds”.

B2: I082H08 (scFv)
scFv: EVQLVESGGGLVQPGGSLRLSCAASGFTFSDYGMHWVRQRPGKGLEWIAFIGSDGSNKYYGDTVKGRFTISRDNAKNSLYLQMNSLRAEGTAVYYCARDWDMDVWGQGTMVTVSSGGGGSGGGGSGGGGSSHVILTQPRSVSGSPGQSVTISCTGTSSDVGGYHYVSWYQQHPGKAPRLMIYEVTKRPSGVSNRFSGSKSGNTASLTISGVQAEDEADYYCSSYTSASTVIFGGGTKLTVLG
Consider B2, for which, in test [2], the binding result was “binds”.

B3: I099D03 (scFv)
scFv: QVQLVQSGAEVKKPGASVRVSCKSSGYTFTNYGISWVRQAPGQGLEWMGWISNNNGKTYYAQKVQGRVTMTTDTSTSTDYMELRGLRSDDTAIYYCARDNGGGTIGFDYWGRGTLVTVSSGGGGSGGGGSGGGGSAQAVLTQPSSVSGAPGQRVTMSCTGSSSNIGAGYDVHWYQQLPGTAPKLLIYDNTNRPSGVPDRFSGSRSGTSASLAITGLQAEDEADYFCQSYDITLSAVFGTGTKVTVLG
Regarding B3, the binding result in test [2] was “binds”.

The values above are taken from patent US20100111953A1.
